# Laboratory results taken from paper PMC11276760.
# Target: integrin β1 (on KYSE410 ESCC cells) (UniProt P05556)
# Test: flow cytometry (cell binding)
# Conditions: 0.01 M PBS, 4.5 g/L glucose, 5 mM MgCl2, 1 mg/mL BSA, 0.1 mg/mL yeast tRNA, 30 min on ice, ~1e5 cells, pH not stated, protein on the cell surface
# [1] = 250 nM, label: 5' FAM, single-stranded DNA
# [2] = 250 nM, similar to A2(35), label: 5' FAM, single-stranded DNA
sequence,measurement,setting,value
CGAATGCTATCG [A2(12)],binding result,[1],no binding
GCTAAGTATCAAAATGAGC [A2(19)],binding result,[1],no binding
ACGACGACGACGACGACGTTTCGCGAATGCTATCGGGGCTAAGTATCAAAATGAGC [A2(35)-DLS2],binding result,[2],binds
AGAAGGAAGGAGAGCGACACCACCACGCGAATGCTATCGGGGCTAAGTATCAAAATGAGCTATCAGTGGTCGGTCGTCAT [A2(80)],binding result,[1],binds
CGTCGTCGTCGTCGTCGTTTTCGCGAATGCTATCGGGGCTAAGTATCAAAATGAGC [A2(35)-DLS1],binding result,[2],binds
CACCACGCGAATGCTATCGGGGCTAAGTATCAAAATGAGC [A2(40)],binding result,"250 nM, similar to A2(80), label: 5' FAM, single-stranded DNA",binds
CGTCGTCGTCGTCGTCGTTTTCGCGAATGCTATCGGGGCTAAGTATCAAAATGAGC / ACGACGACGACGACGACGTTTCGCGAATGCTATCGGGGCTAAGTATCAAAATGAGC [BAD (bivalent aptamer-DNA carrier)],binding result,"doxorubicin-loaded (BADD), similar to BAD, label: 5' …",binds

# For at least one entry, the source does not settle the construct or the ends of the probe. At least one result comes from cells or an extract, where the contact may be indirect. No signal at the amounts used counts as a negative.
